At least one compound was matched to its structure with a doubt left.
System: initially non-innervated rabbit colon circular smooth muscle construct
Assay: Real time force generation of bioengineered colon smooth muscle construct, initially non-innervated (Example 2)
Format: cell-based
Conditions: 60 mM KCl with calcium channel blocker nifedipine; non-innervated colon constructs

In the case of `COC(=O)C1=C(C)NC(C)=C(C(=O)OC)C1c1ccccc1[N+](=O)[O-]` [nifedipine], the “KCl-induced contraction in the presence of nifedipine” value was “did not induce a contraction”.

Reference: patent US9993505B2, “Innervation of engineered structures” (WAKE FOREST UNIVERSITY HEALTH SCIENCES, priority 2012, dated 2018)
